The values that follow come from article doi:10.1101/2023.11.08.566199.

The chains behind the UniProt entries cited, without tags or fusion partners.
UniProt O15085: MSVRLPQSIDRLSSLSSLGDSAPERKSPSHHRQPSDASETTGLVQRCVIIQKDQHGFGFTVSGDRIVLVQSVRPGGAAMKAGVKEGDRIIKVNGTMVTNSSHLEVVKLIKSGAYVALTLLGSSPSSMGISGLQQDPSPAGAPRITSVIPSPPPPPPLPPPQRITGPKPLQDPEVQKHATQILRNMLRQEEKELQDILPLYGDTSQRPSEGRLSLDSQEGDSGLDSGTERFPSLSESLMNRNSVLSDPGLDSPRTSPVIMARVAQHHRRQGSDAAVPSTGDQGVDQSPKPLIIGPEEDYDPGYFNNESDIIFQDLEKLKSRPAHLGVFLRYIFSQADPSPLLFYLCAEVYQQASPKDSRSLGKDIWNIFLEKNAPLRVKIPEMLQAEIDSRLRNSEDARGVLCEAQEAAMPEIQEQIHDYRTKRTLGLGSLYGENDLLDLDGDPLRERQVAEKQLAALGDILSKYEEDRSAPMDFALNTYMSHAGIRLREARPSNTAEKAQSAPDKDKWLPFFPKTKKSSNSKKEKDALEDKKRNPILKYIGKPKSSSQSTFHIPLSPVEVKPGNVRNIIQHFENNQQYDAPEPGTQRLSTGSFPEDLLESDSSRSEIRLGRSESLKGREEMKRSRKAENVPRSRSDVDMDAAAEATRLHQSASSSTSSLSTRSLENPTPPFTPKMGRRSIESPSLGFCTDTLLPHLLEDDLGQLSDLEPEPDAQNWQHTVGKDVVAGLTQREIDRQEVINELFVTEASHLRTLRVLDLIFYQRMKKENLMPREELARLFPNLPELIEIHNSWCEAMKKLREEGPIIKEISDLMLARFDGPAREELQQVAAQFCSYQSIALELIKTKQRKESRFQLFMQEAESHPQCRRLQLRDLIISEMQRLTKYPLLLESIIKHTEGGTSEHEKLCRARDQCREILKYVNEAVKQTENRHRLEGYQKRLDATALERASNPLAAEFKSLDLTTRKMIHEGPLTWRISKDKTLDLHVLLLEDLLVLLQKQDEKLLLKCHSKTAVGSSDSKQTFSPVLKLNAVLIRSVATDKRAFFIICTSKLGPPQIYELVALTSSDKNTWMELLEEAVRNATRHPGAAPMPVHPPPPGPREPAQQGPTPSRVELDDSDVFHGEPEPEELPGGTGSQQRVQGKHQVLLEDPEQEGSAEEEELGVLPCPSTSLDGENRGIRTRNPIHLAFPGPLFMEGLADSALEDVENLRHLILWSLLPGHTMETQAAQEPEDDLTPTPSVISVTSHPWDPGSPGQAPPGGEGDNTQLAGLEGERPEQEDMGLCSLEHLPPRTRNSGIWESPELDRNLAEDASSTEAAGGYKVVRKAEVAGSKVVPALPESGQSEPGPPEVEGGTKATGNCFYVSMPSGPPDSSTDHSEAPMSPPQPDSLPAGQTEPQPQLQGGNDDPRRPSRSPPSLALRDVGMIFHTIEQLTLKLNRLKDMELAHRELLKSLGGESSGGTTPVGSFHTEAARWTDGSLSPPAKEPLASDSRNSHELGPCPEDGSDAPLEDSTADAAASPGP

For the experiment, the target named is V5- and TurboID-fused Solo (UniProt Q8TER5). Kind of experiment: proximity labelling.

Results are given in words; binding and its absence hold for the method and conditions named. In cells and extracts the contact can be indirect. Here binding means that the protein was enriched with, or labelled near, the bait; the list need not be complete.

As for “PDZ-RhoGEF (endogenous, DLD-1 cells) (from UniProt O15085 1-1522)”, the binding result is given as “binds”.
